Experimental findings from PubChem BioAssay AID1508600 (Functional Genomics Laboratory (NCATS/FGL), 2020) are described below.

The campaign covered roughly 53,000 sequences. About 3,700 (7%) were called active.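 The calls were made as follows: active = gene knockdowns whose robust z-score for IL-1 alpha signal is at least 2 or at most -2, so actives lie on both sides; inactive = the rest.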 This is one part of the list.

This assay can be described thus: Components of the Cytosolic LPS Sensing Pathway: Gene Identification via Genome-wide siRNA Screen.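 Also: robust z of the log signal after scaling to non-targeting control siRNA wells of the plate.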 The conditions noted are these: RAW264.7 macrophages, IL-1a HTRF, actives lie on both sides, screened at 100 nM (by protocol), cells primed 5 h with Pam3CSK4 first. In outline:
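RAW264.7 mouse macrophages reverse-transfected with single siRNAs (100 nM final) for 48h, primed with Pam3CSK4 for 5 hours, then transfected with LipidA for 24 hour. Supernatant IL-1a read by HTRF; values normalized to negative-control median, log-transformed robust z-scores.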
(In TR-FRET formats the signal depends on donor and acceptor labels being close together.)
As to GGUAGAGCAACUGUUUGCGTT against Myl7, the z-score is inactive: 1.88.

As for GGAACUCCAGCUUUUGGUCTT against Sox13, the z-score was active: 2.51.

GGUCGUGUACUCGUUCAGUTT against Pcdh10: the z-score is active: 2.04.

Take GGCAUUGUUUUCAUUGUGGTT against Cldn7: the z-score was inactive: -0.0872.

On to CGAAAUCAAGUUUACACUCTT against Mia2, for which the z-score was inactive: 1.06.

For GGAUAAGGACAAUCAACUATT against Stab2, the z-score was inactive: 0.806.

On to GGGAGGAGAGGACAAAUUATT against Ywhae, for which the z-score was inactive: 1.66.

In the case of GGACACCUUACAUUAUGAATT against Rasgrf1, the z-score is inactive: -0.796.

As for CUACUCACAGUUUUAUUCATT against Tas2r140, the z-score was inactive: -0.69.

As to GGUGCUAUUCUUUCUUGUCTT against Slc12a3, the z-score was inactive: -1.14.

For the sequence GGAACGAACUAAGAAUGGATT against Mapk8, the z-score is inactive: 1.38.

Take GGACGAUAAAUUCACUGUUTT against Inpp5d: the z-score was inactive: -1.11.

Consider CCAUAUCAGUAUUUAGAACTT against Syt9, for which the z-score was inactive: 0.0976.

In the case of CCGAGUAUGAGAAAUAUGATT against Ext1, the z-score is inactive: -1.11.

Turning to GGAUGUUAGUCCAUUUGGCTT against Gpc5, the z-score was inactive: -0.195.

On to CCUCAUGUCACUUUAACAUTT against Ccl7, for which the z-score was inactive: -0.167.

Turning to GCUACAGCAACAUAACAUGTT against Magi2, the z-score was inactive: 0.792.

In the case of CCAUGUGACAAAGCCUACCTT against Fam131b, the z-score is inactive: 0.845.

GCAGGGACCGUCUAUAACUTT against Ptprb: the z-score was inactive: -1.12.

For the sequence GGCUUUCAUUCUGCAGCUATT against Olfr1089, the z-score is active: -2.13.

In the case of GGGAUUCAAGAAGUCCUGUTT against Elf2, the z-score is inactive: 0.0178.

Regarding GCAGGUUCAGGCAGUAAUUTT against Kpna4, the z-score is active: 3.78.

Turning to GCCGACGAGUAUACUAGACTT against Tenm3, the z-score was inactive: 1.52.

With GCAGAAAAGGCGAGUUUAUTT against Phf19, the z-score was inactive: -1.04.

On to GCUACAAAGCGAUGUUUCATT against Pola2, for which the z-score was inactive: 1.86.

With CGACGUGAGUUAAUGCUGCTT against Pif1, the z-score is inactive: 0.0992.

Turning to AUGGCUAUUUUGAAACCUCTT against H2-M10.3, the z-score was inactive: -0.359.

For the sequence GGUGUCCUCUUUGUUCAUGTT against Sgce, the z-score is active: 2.94.

GCGAAAUCUUUGUCACUAATT against Sertad4: the z-score is inactive: -0.201.

Take GCCGAAGUGACAAUGUCUCTT against Tbc1d14: the z-score was inactive: 0.449.

As to GGUGAUUUUGACCAGUUCUTT against Cyp4v3, the z-score is inactive: -0.53.

Take GGCUUUGUCUUGAAUGGCUTT against Adgre1: the z-score was inactive: -1.11.

In the case of GGAUGUGAAGAUUGUCAUUTT against Usp5, the z-score is inactive: -0.658.

GGGCCUGAUCUACCUGUUUTT against Slc6a18: the z-score was inactive: 0.255.

GGUCAUGGUUAUUUUGUUATT against Plekhg2: the z-score was inactive: 0.929.

For the sequence GGCUCUUCUCAACUCCAAGTT against Lmna, the z-score is inactive: 0.233.

For the sequence GGUGUAUCUGUUCUGUUAATT against Impg1, the z-score was inactive: -0.559.

Consider CCGAGGUUGUGAAACGAUGTT against Trp63, for which the z-score is inactive: -1.47.

GGUCUCUUUUUGUUGUAGUTT against Nat10: the z-score was inactive: -0.405.

As for CGCGUGCUCUCAUUAAUGATT against Gna12, the z-score was inactive: 0.437.

For the sequence GCCUGUUUAGAAUUAGAGATT against Plekhs1, the z-score is inactive: 0.135.

In the case of GCUACAAAGAUCACGAAAATT against C2, the z-score is inactive: 0.668.

Regarding CCAGUCAAAUAUCCAUUAGTT against Scgb2b26, the z-score is active: -2.28.

Turning to AGGCAUUAUACCCAUCAGGTT against Fam89b, the z-score was inactive: -0.624.

GCGGUACAUCAAAUCUGCGTT against Lgalsl: the z-score is inactive: 0.91.

GGACAACUACAUUGUACUGTT against Insr: the z-score was inactive: -1.16.

For CCAGAAACCGUGAUAAAAUTT against Immp2l, the z-score was active: 2.12.

In the case of GGGUUUCCACAGACAAUGUTT against V1rg10, the z-score is inactive: -0.837.

Take GCAAGAGCACUGCUUAAAATT against E2f1: the z-score was inactive: 1.26.

For GGUUACCACACUAUGUUACTT against Tbc1d2b, the z-score is inactive: 0.454.

In the case of CCCGAUGAAGUGUUUUUAGTT against Oosp1, the z-score was inactive: -0.753.

Regarding GGAUUUCAUUAUGUAGACUTT against Rag1, the z-score was inactive: -0.405.

As for GGUGGUGACAGGAACCUCUTT against Mob3a, the z-score is inactive: -0.429.

Consider GGCCAUUCCUUUUCUGGAATT against Crybg1, for which the z-score was inactive: 1.54.

As for GCUACUAUUCCAUCCAUCATT against Atg4b, the z-score is inactive: -0.306.

In the case of GGAGCUGCUUGCUCAAAGATT against Tmem65, the z-score is inactive: 0.61.

Take GCGAGAUGUCCUCAACAAGTT against Dusp16: the z-score was inactive: 0.0466.

GCGAACUCAAACAGUUAAATT against Clca1: the z-score was inactive: -0.706.

On to GCCAAGAGUUUGAUAUAUATT against Plekhg3, for which the z-score was inactive: 1.79.

On to GGGAGAUUGGAAACAAAAATT against Hsd3b4, for which the z-score is inactive: -0.935.

For GGAACUUCAUCCAAACUGATT against Ap4m1, the z-score was inactive: -0.12.

For the sequence CCCAGGUCCUACCUUCUUUTT against Ppcdc, the z-score is active: -2.1.

On to CCAUCUAUCUGGGAUCUCGTT against Cyp2a4, for which the z-score is inactive: 0.111.

For GCACAAAUACAGGUCGUCUTT against Unk, the z-score is inactive: 0.0277.

With CCGACUGCUCGUAAAUUCATT against Ndufa12, the z-score is active: 2.79.

As to CCUACCUGAUUGUGACAUUTT against Arl6ip1, the z-score is inactive: -0.309.

Consider GGUUUGUAUCUCACUUUUGTT against Olfr1247, for which the z-score was inactive: 0.31.

For CCAAGCCUACUACCAUCAUTT against Fabp3, the z-score is inactive: 0.0751.

As to GGUCACCUUUAUGCUACUUTT against Traf1, the z-score is inactive: -0.921.

For the sequence UCUUCCGACUGCCUUUCUGTT against Olfr1417, the z-score is inactive: 1.24.

Take GGAUGUCACUGUUUCACAATT against Clic6: the z-score is inactive: -1.64.

Regarding CCUUUGUCUUUGGUAAAUCTT against Baz2b, the z-score was inactive: -1.08.

In the case of GGAAGUCCUAGUCAUCUUUTT against Mgat2, the z-score was inactive: 1.05.

CGAAACUGGAGAUGUUAUATT against Serpine1: the z-score was inactive: 1.27.

Consider GGACUGCCUUAUGCUACGATT against Setd5, for which the z-score is inactive: -0.44.

GGAAGACACUUAAAAAUUCTT against Mxra8: the z-score is inactive: -1.91.

As to “GGCAGUCUGUCAGAUCAAUTT against Spata31d1d”, the z-score was inactive: -0.885.

Take GGACUUUGAGUUAAAUGCATT against Myh7: the z-score was inactive: -0.599.

Regarding GGACCUAGAUUUUCUACACTT against Cask, the z-score was inactive: 0.662.

Consider GCUGGCUAUACUUUACAACTT against Prkg1, for which the z-score was active: 2.11.

In the case of GGAUUGGAUCUUACAUGUCTT against Scnn1b, the z-score is inactive: -0.137.

With GGAGAGCAAUGGUCCAACATT against Clta, the z-score is inactive: 0.747.

In the case of GCCUCAUGUCUACUCGCUUTT against Nmur1, the z-score was inactive: -0.583.

Take GGUUUCUAUUCUACCUCCCTT against Ceacam14: the z-score is inactive: -0.571.

On to GGAAAUUUUGGAGAUGAUATT against Wdr36, for which the z-score was inactive: -1.03.

CGGGAUAUAUUCUCAGACUTT against Rhbdl2: the z-score is inactive: -0.387.

For the sequence GCCAUAUAAGAUUCUUGUGTT against Pi4kb, the z-score was inactive: -0.63.

For the sequence GGUAGAGACGUGAAUGCUCTT against Tmem184b, the z-score is inactive: -0.383.

For the sequence GCUUGUUAUGAGCGGGCUUTT against Rhox9, the z-score was inactive: -0.00918.

For GGUCAAUGCUACUAAUGAATT against Ankrd61, the z-score is inactive: 0.661.

In the case of CCCGAAUGAUCAAACCAAGTT against Stpg1, the z-score was inactive: 0.955.

In the case of GGGACUCUUCACUUGAAAUTT against Ccl3, the z-score is inactive: -3.8e-05.

As for GCCGGAAUCAAGAUUAUCATT against Foxm1, the z-score was active: -2.04.

As for GGAUACUGCCAUUCAUAGGTT against Cstdc2, the z-score was inactive: -0.182.

As for GGUUUACCCUGCUCAUUUUTT against Fbxl6, the z-score is inactive: 1.71.

With GGCAAGGAAGGAGAUUGCUTT against Ist1, the z-score was inactive: -0.779.

For the sequence “GGCAUUGGCAUUUUUAUAGTT against 9530056K15Rik”, the z-score was inactive: -0.879.

For GGUUAUCUUUGGGACUUAATT against Lrmp, the z-score is inactive: -1.66.

For GCUCGGACUGACCUUUAUGTT against Cnot7, the z-score was inactive: 0.532.

Regarding GGAGUUCAUUGUUUGGUUGTT against Nat2, the z-score is inactive: 0.593.

GGAGAGUGUUACAAAAAUUTT against Rcbtb1: the z-score is inactive: 0.132.

CCUCAUCAUAUUGAUGAGUTT against Ranbp3: the z-score was inactive: 0.977.

With GGCAUAUGCUGAUUAUAGATT against Ankef1, the z-score was inactive: 0.378.

GGCUUGCCCUUUAAUAAAATT against Krt88: the z-score was inactive: 0.605.

GGACUACAUGCUCACGUUATT against Ccm2: the z-score is active: 2.07.

As for GGCUAUGCAAUGGAUCUGATT against Osbpl5, the z-score is inactive: 0.913.

Consider GGUGAUGUACAACUUUUUGTT against Wdr34, for which the z-score was inactive: -0.453.
